Results are given in words; binding and its absence hold for the method and conditions named. In cells and extracts the contact can be indirect. Here binding means that the protein was enriched with, or labelled near, the bait; the list need not be complete.

By UniProt entry, the sequences of proteins in these tests, tags left out.
UniProt P00441, whole entry: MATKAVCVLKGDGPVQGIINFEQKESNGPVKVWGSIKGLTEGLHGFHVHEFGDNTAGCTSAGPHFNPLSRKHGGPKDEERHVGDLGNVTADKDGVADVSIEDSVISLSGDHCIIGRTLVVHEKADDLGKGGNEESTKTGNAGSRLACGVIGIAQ

This note sets out measurements from article doi:10.1101/2025.08.11.669663.

For this assay, the target named is HA-tagged SOD1 (UniProt P00441). The assay is described as follows: affinity purification with mass spectrometry.
In the case of FEN1 (from UniProt P39748 1-380), the binding result is given as “binds”.
Under PCNA (from UniProt P12004 1-261) stands “binds”.
Under “POLD1 (a DNA polymerase subunit) (from UniProt P28340 1-1107)” stands “binds”.
For “glyceraldehyde-3-phosphate dehydrogenase (GAPDH) (from UniProt P04406 1-335)” the value was “binds”.
